# Source: PubChem BioAssay AID493014 (National Center for Advancing Translational Sciences (NCATS), 2011)
# The list shows a part of the results. Shown are side measurements of this screen, not its main read-out; they come without a call. Compounds called inactive in the main read-out are mostly missing here. Potencies come from curve fits of mixed quality, noted in brackets.
# Assay: qHTS Assay to Find Inhibitors of Chronic Active B-Cell Receptor Signaling
# Settings: ABC-DLBCL IkBa-CBG/CBR reporter, luminescence ratio (green luciferase fused to IkBa over red control in TMD8 lymphoma cells), 4 h
# Procedure, shortened: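 TMD8 human ABC-DLBCL cells with doxycycline-inducible IκBα–green luciferase fusion and unfused red luciferase, in 0.5% FBS medium; compounds up to 46 uM, 4 h at 37C. Green/red luminescence ratio, filter-overlap corrected, fitted to concentration-response curves.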
# [1] = measured here: CBR red luminescence, cell number
# [2] = measured here: IkBa-CBG green luminescence
SMILES,AC50 [1],AC50 [2]
CC(C)Sc1nc2sc(-c3ccccc3)cc2c(=O)n1N,"31.6 µM [falling, single point]",–
COc1cc(-n2nnnc2SCC(=O)N2CCN(c3ccc(F)cc3)CC2)c(OC)cc1Cl,"14.6 µM [rising, partial curve, poor fit]",–
O=C(CCCN1C(=O)/C(=C/c2ccccc2)SC1=S)Nc1cccc(O)c1,"11.2 µM [falling, partial curve]",–
COc1ccc(C(=O)/C=C\N2CCOCC2)cc1,"1.84 µM [rising, full curve, poor fit]",–
COc1cc(C(=O)OCC(=O)c2c(N)n(C)c(=O)n(C)c2=O)ccc1OCCC(C)C,"31.6 µM [rising, partial curve, poor fit]",–
O=C(NNC(=O)c1ccc(-n2cncn2)c([N+](=O)[O-])c1)c1cccc(Cl)c1,"13 µM [falling, partial curve, poor fit]",–
CSc1nc(N)c(C(=O)Nc2ccc([N+](=O)[O-])cc2)s1,"0.112 µM [rising, full curve, poor fit]",–
CCCCCCCn1c2c(c(=N)c3ccccc31)CCC2,"22.4 µM [falling, single point]",–
Cc1ccc(NC(=O)c2csc(-c3ccccc3)c2C)cc1,"17.8 µM [rising, partial curve, poor fit]",–
NC(=S)N/N=C\c1c2ccccc2cc2ccccc12,"2.59 µM [falling, partial curve, poor fit]","18.4 µM [rising, partial curve, poor fit]"
C/C(=N/NC(=O)c1ccc(O)cc1)c1cccc([N+](=O)[O-])c1,"0.731 µM [falling, full curve]",–
CCc1c(C(=O)NCCc2cccc(C)c2)[nH]c(C)c1C(C)=O,"20 µM [falling, single point]",–
NC(=O)NCC(=O)N1CCC(C(O)(c2ccccc2)c2ccccc2)CC1,"0.891 µM [rising, full curve, poor fit]",–
CC(C)OC(=O)CC12CN3CN(C1)CC(CC(=O)OC(C)C)(C3)C2=O,"4.47 µM [falling, full curve, poor fit]",–
Cn1c(CCN2CCN(c3ccc(F)cc3)CC2)nc2cc(NC(=O)c3ccco3)ccc21,"20 µM [falling, single point]",–
Cc1cccc(C(=O)Oc2ccc(/C=N/O)cc2)c1,–,"25.9 µM [falling, partial curve, poor fit]"
O=C(Nc1ccc2[nH]ncc2c1)c1ccccc1Br,"12.6 µM [falling, partial curve]",–

# Copied from the listing, two compounds:
SMILES,AC50 [1],AC50 [2]
COc1cc(C(=O)OCC(=O)c2c(N)n(C)c(=O)n(C)c2=O)ccc1OCCC(C)C,"31.6 µM [rising, partial curve, poor fit]",–
O=C(NNC(=O)c1ccc(-n2cncn2)c([N+](=O)[O-])c1)c1cccc(Cl)c1,"13 µM [falling, partial curve, poor fit]",–
